{"source": "PubChem BioAssay AID1508600", "about": "(Functional Genomics Laboratory (NCATS/FGL), 2020)", "note": "In all, about 53,000 sequences went through this assay and about 3,700 (7%) were called active.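 The calls were made as follows: active = gene knockdowns whose robust z-score for IL-1 alpha signal is at least 2 or at most -2, so actives lie on both sides; inactive = the rest.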 The list shows a part of the results."}
{"assay": "Components of the Cytosolic LPS Sensing Pathway: Gene Identification via Genome-wide siRNA Screen;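 also: robust z of the log signal after scaling to non-targeting control siRNA wells of the plate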", "details": "RAW264.7 macrophages, IL-1a HTRF, actives lie on both sides, screened at 100 nM (by protocol), cells primed 5 h with Pam3CSK4 first", "outline": "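RAW264.7; siRNA 100 nM final, RNAiMAX, 48h 37 degrees C; Pam3CSK4 5 h; LipidA + TransIT-TKO 24 h; IL-1a HTRF; CellTiter-Glo viability; robust z vs negative-control median.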"}
{"sequence": "GCCGAAUAUUAAAUGGUUUTT against Gnl2", "z-score": "inactive: 0.93"}
{"sequence": "GGUGUUAGCCUAGAAAAACTT against Fbxo43", "z-score": "inactive: -0.646"}
{"sequence": "GGACCGUUUACAACUUCUATT against Spast", "z-score": "inactive: 0.872"}
{"sequence": "CCACAUGAUUCUGACAUAUTT against A830019P07Rik", "z-score": "inactive: -1.06"}
{"sequence": "GGUCUAUUUGACCUCUUAATT against Bcl2l13", "z-score": "active: 2.22"}
{"sequence": "CGGAUUGAUUUCUGAUGCGTT against Krt77", "z-score": "inactive: -0.561"}
{"sequence": "GCGGUGCUUAGAGCAACUGTT against Mxd3", "z-score": "inactive: -0.531"}
{"sequence": "GGAAAUCCGCUUCACCAUCTT against Efnb1", "z-score": "inactive: 1.28"}
{"sequence": "GCAUGUUGCAUCACAGGGATT against Zfp106", "z-score": "inactive: -0.355"}
{"sequence": "CCAGGACCUAGAGUACCUUTT against Osgin1", "z-score": "inactive: 0.0607"}
{"sequence": "GGAAUUCGUAAUCACGCAATT against Vmn1r62", "z-score": "inactive: -1.23"}
{"sequence": "UCACAAGUACAGAUCUGAATT against Vmn1r209", "z-score": "inactive: -0.188"}
{"sequence": "GCUUACAAUGAAUGAUGAUTT against Psme4", "z-score": "inactive: -0.061"}
{"sequence": "GAAAAAAUGCCAGCUGUGGTT against Sec61b", "z-score": "inactive: 0.379"}
{"sequence": "GCUAAUCCGGGCAAAAUCGTT against Gbp3", "z-score": "inactive: 0.656"}
{"sequence": "GGAAAAGCAUAAAGAAAAGTT against Ralbp1", "z-score": "inactive: 1.33"}
{"sequence": "GGAAAAGCUUUUGUUCCCATT against Tfb1m", "z-score": "active: 2.58"}
{"sequence": "GGUAACUCUCCUUAGCCAGTT against Klk10", "z-score": "inactive: -0.0493"}
{"sequence": "GGUCCCUUGAUGUCGAUUATT against Stt3b", "z-score": "inactive: -1.15"}
{"sequence": "GGUCACUCCGAUGUUAUUUTT against G6pc", "z-score": "inactive: -1.47"}
{"sequence": "GCCAUGAUGACUAACCUUATT against Dbpht2", "z-score": "inactive: -1.27"}
{"sequence": "GGAUAGCAAUUGUCUUUCATT against Zfp947", "z-score": "inactive: -0.142"}
{"sequence": "CCAAAUUCAUCAGAUCUUCTT against Olfr424", "z-score": "inactive: -0.987"}
{"sequence": "CCUGUGGUGCAAACGGUUGTT against Osm", "z-score": "inactive: -0.254"}
{"sequence": "GGAUAACAAACCUGAAUCATT against Xkr5", "z-score": "inactive: -0.797"}
{"sequence": "GACAAAUAGUGCAGGAGGATT against Lce1i", "z-score": "inactive: -0.537"}
{"sequence": "GGAAGAAGACAUGCUCACUTT against Pcdhb8", "z-score": "inactive: 1.07"}
{"sequence": "GGUGCUACUCCAGAUUGACTT against Tbc1d13", "z-score": "inactive: 0.63"}
{"sequence": "GGACGGCAAAUUUGGUUUCTT against Mmp9", "z-score": "inactive: 1.28"}
{"sequence": "GGACAAUGACCAGUUGAACTT against Prrx1", "z-score": "inactive: 0.916"}
{"sequence": "CCCUUGUUGUUUAUCCUCATT against Ly6f", "z-score": "inactive: -1.06"}
{"sequence": "GGAAGGUGUCAAUAAAGAUTT against Lypd3", "z-score": "inactive: 0.0184"}
{"sequence": "GGAGUUUGUGUUGUCAGUGTT against Kcng3", "z-score": "inactive: -0.857"}
{"sequence": "GCAGAAAUGUCCAUCCAAATT against Sprr2k", "z-score": "active: 2.36"}
{"sequence": "GGUUUGUUUUUGUUCGUUUTT against Cytip", "z-score": "inactive: -0.067"}
{"sequence": "CCCUGAUUGGACUGAACUCTT against Olfr145", "z-score": "inactive: 1.49"}
{"sequence": "GGACCAAAAGAAAGUAGAATT against Tbc1d9b", "z-score": "inactive: 1.44"}
{"sequence": "CCUGAGACAUACUUAAUGUTT against Anapc10", "z-score": "inactive: 0.747"}
{"sequence": "GCUGCAUUGGUUGAAUGUGTT against Slc22a1", "z-score": "inactive: -0.141"}
{"sequence": "GCAUAUAUCUGUGGAGUGUTT against Olfr1502", "z-score": "inactive: -1.34"}
{"sequence": "CCACCCUUGGUAAAAAUGUTT against Olfr1006", "z-score": "inactive: -1.63"}
{"sequence": "GGAUCUUUGCUACAAAAACTT against Fhl5", "z-score": "inactive: 0.48"}
{"sequence": "GGAUUAGAGAAAUAGGGCUTT against Apol10a", "z-score": "active: -2.09"}
{"sequence": "GGAUCAGAGAACAGAGUCUTT against Alms1", "z-score": "inactive: -1.79"}
{"sequence": "GGUAAUGUGGAACACAGCATT against Gsr", "z-score": "inactive: -0.831"}
{"sequence": "GGGUGAAAAGCAUUUCUGUTT against Actrt3", "z-score": "inactive: 0.583"}
{"sequence": "GGGAUUCAGAACUUAAAGUTT against Vmn1r236", "z-score": "inactive: 0.475"}
{"sequence": "GUGGCUGACAAGUUUAUCATT against Cyp2c66", "z-score": "inactive: -0.132"}
{"sequence": "GGAGGAACUCCUAAAGAAGTT against Galntl5", "z-score": "inactive: -0.511"}
{"sequence": "GCCAUCUCUAUGUUGUUGATT against Smtnl2", "z-score": "inactive: -0.108"}
{"sequence": "CCCAGAGAUAAAGACGGGCTT against B4galt1", "z-score": "inactive: -0.325"}
{"sequence": "GCUACCAUGCCCUAUGUAGTT against Slc6a3", "z-score": "inactive: -0.694"}
{"sequence": "GGUUCAUUUAUACUUAACCTT against Tgif2lx1", "z-score": "inactive: -0.854"}
{"sequence": "GAUGUGUUAACUACACCGATT against Pyy", "z-score": "inactive: 0.983"}
{"sequence": "GGACCAUGGCAUUAAACUGTT against S1pr1", "z-score": "inactive: -0.515"}
{"sequence": "GCACCUCUCCCUACGAUUATT against Cxcr3", "z-score": "inactive: 0.142"}
{"sequence": "GGCUUUGAUUAUGUUCCCATT against Fcer2a", "z-score": "inactive: -0.188"}
{"sequence": "GGCAUCAAGUGACUUAUAATT against Zfp772", "z-score": "active: 2.47"}
{"sequence": "GGAGGAACCUGAAGAUCUGTT against Bcl2l11", "z-score": "inactive: 1.35"}
{"sequence": "CCAUAACAGACCAGAUUCGTT against Gtf2h4", "z-score": "inactive: -0.613"}
{"sequence": "GCUUGAGUCGUCAAAACUGTT against Mars1", "z-score": "inactive: -0.413"}
{"sequence": "GGGCUUUAUACCCUACGAATT against Ceacam13", "z-score": "inactive: -0.468"}
{"sequence": "GGAGAGAGUGACCUUAAAUTT against Olfr818", "z-score": "inactive: 0.0399"}
{"sequence": "GGAGUCUGAUCAAUGGAAUTT against Hsd17b13", "z-score": "inactive: 0.747"}
{"sequence": "GCCUGGUUUCUCCCUCAAATT against Pkmyt1", "z-score": "inactive: -0.567"}
{"sequence": "GAGAGAGAGAGAAAAUCUGTT against Klra1", "z-score": "inactive: -0.301"}
{"sequence": "CCCACAAAGAUAGGCCGUGTT against Gm5136", "z-score": "inactive: 0.358"}
{"sequence": "GCAUACAAGACCGUGAUCATT against Psmc4", "z-score": "active: -2.03"}
